Results are given in words; binding and its absence hold for the method and conditions named. Binding seen in cells or lysates may run through a third protein. Some binding calls cover weakened binding; strength is not graded here.
Target: Ezh2 (Enhancer of zeste homolog 2, the catalytic subunit of PRC2) (human (endogenous in iPSC-derived cardiomyocytes)) (UniProt Q15910)
Test: co-IP; endogenous Lamin A/C and Ezh2 in CNTR-CMs and K219T-CMs; an unrelated IgG antibody as negative control; performed as in ref. 51, detailed protocol in the Supplementary Methods

The chains behind the UniProt entries cited, without tags or fusion partners. Where a name states a change or a piece, a line headed by the entry shows the natural chain unless it says otherwise. A line that says so, or that is headed by a name, gives the form on record, which may keep a tag or linker. Residues count along the entry.
UniProt Q15910: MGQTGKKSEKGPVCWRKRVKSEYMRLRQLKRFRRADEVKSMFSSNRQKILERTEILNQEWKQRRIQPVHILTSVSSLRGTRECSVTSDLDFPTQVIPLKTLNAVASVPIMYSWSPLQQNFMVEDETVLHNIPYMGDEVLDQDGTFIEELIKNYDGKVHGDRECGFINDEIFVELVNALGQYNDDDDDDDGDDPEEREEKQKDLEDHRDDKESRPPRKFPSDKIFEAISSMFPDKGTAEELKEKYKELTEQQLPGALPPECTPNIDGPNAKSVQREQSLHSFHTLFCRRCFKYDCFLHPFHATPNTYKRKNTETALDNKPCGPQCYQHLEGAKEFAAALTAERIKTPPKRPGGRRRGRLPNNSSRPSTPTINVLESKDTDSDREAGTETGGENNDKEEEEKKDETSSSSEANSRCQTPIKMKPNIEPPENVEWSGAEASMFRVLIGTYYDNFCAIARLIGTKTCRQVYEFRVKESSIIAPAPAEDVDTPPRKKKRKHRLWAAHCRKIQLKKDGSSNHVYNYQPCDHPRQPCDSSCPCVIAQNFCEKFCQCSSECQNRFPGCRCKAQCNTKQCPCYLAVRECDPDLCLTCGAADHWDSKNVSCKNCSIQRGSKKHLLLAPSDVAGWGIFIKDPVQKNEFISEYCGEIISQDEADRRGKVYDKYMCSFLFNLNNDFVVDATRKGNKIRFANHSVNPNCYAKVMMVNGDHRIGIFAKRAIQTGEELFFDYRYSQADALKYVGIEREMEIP
Lamin A/C (wild type) (P02545, residues 1-646): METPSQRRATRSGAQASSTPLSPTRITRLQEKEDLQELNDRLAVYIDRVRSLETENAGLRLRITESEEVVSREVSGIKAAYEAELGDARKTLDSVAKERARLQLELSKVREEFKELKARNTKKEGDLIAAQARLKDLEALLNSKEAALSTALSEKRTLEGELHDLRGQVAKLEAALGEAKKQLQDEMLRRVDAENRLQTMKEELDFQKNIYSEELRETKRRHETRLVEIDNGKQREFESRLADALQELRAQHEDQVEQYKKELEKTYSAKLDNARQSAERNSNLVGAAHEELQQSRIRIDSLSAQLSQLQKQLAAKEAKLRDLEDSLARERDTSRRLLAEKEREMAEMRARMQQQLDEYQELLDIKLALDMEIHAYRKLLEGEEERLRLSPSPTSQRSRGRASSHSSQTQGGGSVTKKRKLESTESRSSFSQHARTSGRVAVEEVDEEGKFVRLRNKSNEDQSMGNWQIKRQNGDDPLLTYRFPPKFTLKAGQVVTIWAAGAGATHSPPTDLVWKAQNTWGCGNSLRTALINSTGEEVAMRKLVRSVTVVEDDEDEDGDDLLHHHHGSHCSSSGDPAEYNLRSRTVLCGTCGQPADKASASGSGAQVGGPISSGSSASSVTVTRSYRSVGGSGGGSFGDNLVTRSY
K219T-Lamin A/C (P02545, form named): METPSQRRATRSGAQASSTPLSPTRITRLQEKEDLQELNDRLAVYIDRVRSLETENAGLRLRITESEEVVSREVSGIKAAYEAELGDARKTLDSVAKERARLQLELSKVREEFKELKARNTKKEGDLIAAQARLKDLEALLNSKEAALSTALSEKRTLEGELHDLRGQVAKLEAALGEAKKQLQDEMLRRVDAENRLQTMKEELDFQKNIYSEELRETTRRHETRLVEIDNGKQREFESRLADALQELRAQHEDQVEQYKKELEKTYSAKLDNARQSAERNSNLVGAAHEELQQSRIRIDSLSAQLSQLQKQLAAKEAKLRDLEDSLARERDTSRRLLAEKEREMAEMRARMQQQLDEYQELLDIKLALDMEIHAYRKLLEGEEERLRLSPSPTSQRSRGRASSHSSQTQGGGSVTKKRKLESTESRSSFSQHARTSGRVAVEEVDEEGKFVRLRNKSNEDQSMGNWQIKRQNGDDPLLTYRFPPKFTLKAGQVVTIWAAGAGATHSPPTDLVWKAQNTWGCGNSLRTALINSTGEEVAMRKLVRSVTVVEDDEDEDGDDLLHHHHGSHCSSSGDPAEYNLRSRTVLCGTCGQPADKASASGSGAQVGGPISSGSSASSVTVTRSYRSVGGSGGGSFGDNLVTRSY

Substance	binding
K219T-Lamin A/C (from UniProt P02545 1-646)	binds
Lamin A/C (wild type) (from UniProt P02545 1-646)	binds
